Results are given in words; binding and its absence hold for the method and conditions named.
Molecular target: T1, Photoactive yellow protein from Halorhodospira halophila (Hh-PYP) (Halorhodospira halophila) (UniProt P16113)
T1 sequence (chain, chromophore, p-coumaric acid): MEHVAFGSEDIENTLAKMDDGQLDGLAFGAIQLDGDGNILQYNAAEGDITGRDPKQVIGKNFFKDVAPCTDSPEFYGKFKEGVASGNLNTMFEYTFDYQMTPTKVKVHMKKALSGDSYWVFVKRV
Assay: transient grating

binding: no binding
Substance: PYP-binding protein (PBP) from Rhodobacter capsulatus (from UniProt D5AR21)

From paper doi:10.1101/2021.06.01.446672
